Laboratory results from PubChem BioAssay AID651640 (Broad Institute, 2012).
The whole screen tested about 350,000 compounds, of which about 6,000 (1.7%) were called active. Inconclusive results, whose numbers are uncertain, are shown with a selection of clear calls. No stated cut-off is given here; in the data, active means CPE inhibition above about 20% (passing the limit was not always enough); inconclusive means no clear call, values can overlap the other calls; tested in BHK-21 cells. Where a structure was tested more than once in an assay, its records may differ in their call.

Test: protection of cells from dengue 2 killing – plate reader, single concentration, primary screen (AID 651640);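 further: 0% = median of neutral control wells and 100% = median of positive control wells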
Conditions: DENV2-infected cells, cytopathic effect rescue, at 9.99 µM, active compounds read high

Row | SMILES | CPE inhibition
1 | COc1ccc(S(=O)(=O)Nc2ccc3c(c2)C(=O)N([C@@H](C)CO)C[C@@H](C)[C@H](CN(C)C(=O)CCC(F)(F)F)OCCCC[C@H](C)O3)cc1 | inconclusive: 37.4%
2 | COCCNC(=O)[C@@H]1[C@@H](CO)[C@@H]2Cn3c(ccc(-c4ccccc4F)c3=O)[C@H]1N2S(C)(=O)=O | inconclusive: 41.4%
3 | CN1c2ccc(-c3cccc(F)c3)cc2[C@H]2[C@H](CCN2C(=O)C2CCOCC2)[C@H]1CO | inactive: -13.6%
4 | C/C(=N\NC(=O)c1cccc(S(=O)(=O)N2CCCC2)c1)c1ccc(C)cc1 | inconclusive: 64%
5 | N#Cc1ccc(-c2ccc(C3[C@@H]4CN(C(=O)c5cccnc5)C[C@H]3N4)cc2)cc1 (stereo partly drawn) | inconclusive: 29.2%
6 | Cc1ccc(C)c(OCCCNC2CCCC2)c1C | inconclusive: 20.7%
7 | C#CCOCCOCCOCCNc1nc(N2CCOCC2)nc(N2CCN(C(=O)[C@H](CCCCN)n3cc(CCCC)nn3)CC2)n1 | inconclusive: 31.3%
8 | Cc1noc(C)c1S(=O)(=O)Nc1cccc2c1O[C@H](CN(C)Cc1ccncc1)[C@H](C)CN([C@H](C)CO)C2=O | inconclusive: 24.3%
9 | C[C@@H]1CN([C@@H](C)CO)C(=O)Cc2cc(NS(=O)(=O)c3ccc(F)cc3)ccc2O[C@H]1CN(C)C(=O)Nc1cccc2ccccc12 | inactive: -3.15%
10 | COc1ccc2c3c([nH]c2c1)[C@@H](CO)N(Cc1nccs1)CC31CN(Cc2ccncc2)C1 | active: 54.2%
11 | CC(C)C(C(=O)NCc1ccco1)N(Cc1ccco1)C(=O)CNS(=O)(=O)c1ccccc1 (stereo not drawn) | inconclusive: 25.5%
12 | C[C@@H]1CN([C@H](C)CO)C(=O)Cc2cc(NS(=O)(=O)c3ccc(Cl)cc3)ccc2O[C@@H]1CN(C)CC1CCCCC1 | active: 48.9%
13 | CC(=NN(Cc1ccccc1)c1ccccc1)c1ccccc1 | inconclusive: 60.5%
14 | CC(=O)c1cc(O)c2ccccc2c1O | inconclusive: 34.9%
15 | CO[C@H]1CN(C)C(=O)c2cc(NS(=O)(=O)CC(F)(F)F)ccc2OC[C@@H](C)N(C(=O)c2ccc3c(c2)OCO3)C[C@@H]1C | inactive: 15.3%
16 | Cc1cccc(-c2ccc(C3[C@H]4CNC[C@@H]3N4C(=O)Nc3ccc(F)cc3)cc2)c1 (stereo partly drawn) | active: 27.8%
17 | CC(C)NC(=O)N(C)C[C@@H]1Oc2ccc(NC(=O)CCC(F)(F)F)cc2CC(=O)N([C@@H](C)CO)C[C@H]1C | inconclusive: 20.9%
18 | O=C(Nc1nccs1)c1cc2cc(Cl)ccc2oc1=O | inactive: 4.43%
19 | CCc1cc(=O)oc2cc(OCC(=O)N3CCC(C(=O)O)CC3)ccc12 | inconclusive: 43.9%
20 | O=[N+]([O-])c1cc([N+](=O)[O-])c(Oc2cc(F)cc(F)c2)cc1NN1CCCCC1 | active: 25.2%
21 | COc1ccc(-c2ccc([C@@H]3[C@@H](C#N)N(C(=O)C4CCC4)[C@H]3CO)cc2)cc1 | active: 72.3%
22 | C[C@@H]1CN([C@@H](C)CO)C(=O)c2cccc(NS(=O)(=O)c3ccc(Cl)cc3)c2O[C@@H]1CN(C)CC1CCCCC1 | inconclusive: 31.3%
23 | CN1C(=O)c2cc(NC(=O)C3CCC3)ccc2OC[C@H]2O[C@@H](CC(=O)NCCc3ccncc3)CC[C@H]21 | active: 20.6%

Row | SMILES | CPE inhibition
24 | CCN(c1ccccc1)S(=O)(=O)c1ccc(OC)c(NC(=O)c2cc(F)c(F)c(F)c2F)c1 | inconclusive: 27.7%
25 | Fc1cccc(Cc2noc(CN3CCC(c4ccncc4)CC3)n2)c1 | inconclusive: 31.3%
26 | C[C@@H]1CCCCO[C@@H](CN(C)S(=O)(=O)c2ccc(Cl)cc2)[C@H](C)CN([C@@H](C)CO)C(=O)c2cc(NC(=O)c3ccncc3)ccc2O1 | inconclusive: 43.4%
27 | CCC(=O)c1c[nH]c(C(=O)NCc2cccc(C(F)(F)F)c2)c1 | inconclusive: 47.6%
28 | CCN(C[C@H]1[C@H](c2ccccc2)[C@@H](CO)N1C(C)=O)C(=O)NC1CCCC1 | inactive: 6.14%
29 | C[C@@H]1CN([C@@H](C)CO)C(=O)Cc2cc(NC(=O)CCCN(C)C)ccc2O[C@H]1CN(C)C(=O)Nc1ccc(F)cc1 | inconclusive: 21.4%
30 | O=C(NC[C@@H]1[C@@H](c2ccccc2)[C@@H](CO)N1Cc1cccnc1)C1CCCC1 | inactive: 1.38%
31 | C[C@@H]1CN([C@H](C)CO)C(=O)Cc2cc(NC(=O)Nc3ccc4c(c3)OCO4)ccc2O[C@@H]1CN(C)Cc1ccc(C(F)(F)F)cc1 | inactive: -1.69%
32 | CCCN1C(=O)/C(=C/c2nc3ccccc3c(=O)[nH]2)c2ccccc21 | inactive: -2.21%
33 | C[C@H]1CN([C@@H](C)CO)C(=O)Cc2cc(NC(=O)NC3CCCCC3)ccc2O[C@@H]1CN(C)Cc1ccc(Oc2ccccc2)cc1 | inconclusive: 31.9%
34 | COCC#Cc1ccc2c(c1)O[C@@H](CN(C)C(=O)CN(C)C)[C@H](C)CN([C@H](C)CO)S2(=O)=O | inactive: 5.45%
35 | CCSC1=C(C#N)C(c2cccc(Br)c2)CC(=O)N1 (stereo not drawn) | inconclusive: 25.6%
36 | F[B-](F)(F)COCc1ccccc1Br | inactive: -3.95%
37 | COc1ccc2c3c(n(C)c2c1)[C@@H](CO)N(S(=O)(=O)c1ccc(C)cc1)CC31CN(S(=O)(=O)c2ccc(C)cc2)C1 | active: 62.7%
38 | CCOC(=O)CNC(=O)C1CCC(CNS(=O)(=O)c2cccc3nsnc23)CC1 (stereo not drawn) | inconclusive: 24.9%
39 | O=C(Nc1ccc(N2CCCC2)cc1)c1cc2ccccc2o1 | inconclusive: 37.2%
40 | CN(C(=O)c1ccc(NC(=O)Cc2ccc(NC(=O)C3CCN(C(=O)C4CC4)CC3)cc2)cc1)C1CCCC1 | inconclusive: 109%
41 | CC1=C(C(=O)N2CCCCCC2)CC(CC(=O)NC2CCCCC2)C(=O)N1CCC1=CCCCC1 (stereo not drawn) | inconclusive: 41.4%
42 | O=C(O)c1ccc(N=C2NC(=O)C(CO)(CO)S2)cc1 | inconclusive: 29.9%
43 | C[C@H]1CN([C@@H](C)CO)C(=O)c2cccc(NS(=O)(=O)c3ccc(Cl)cc3)c2O[C@@H]1CN(C)C(=O)Nc1ccc(C(F)(F)F)cc1 | inactive: 4.65%
44 | Oc1c(N=Nc2ccc(F)cc2)ccc2ccccc12 | inactive: -6.5%
45 | CCCCNC(=O)C(NC(=O)c1ccc(=O)[nH]c1)C(=O)c1ccccc1 (stereo not drawn) | inconclusive: 41.9%
46 | CC(NC(=O)COC(=O)CN1C(=O)C2CCCCC2C1=O)c1ccccc1 (stereo not drawn) | inconclusive: 37%

Fetched one by one from the entries so far, three records:
Row | SMILES | CPE inhibition
34 | COCC#Cc1ccc2c(c1)O[C@@H](CN(C)C(=O)CN(C)C)[C@H](C)CN([C@H](C)CO)S2(=O)=O | inactive: 5.45%
26 | C[C@@H]1CCCCO[C@@H](CN(C)S(=O)(=O)c2ccc(Cl)cc2)[C@H](C)CN([C@@H](C)CO)C(=O)c2cc(NC(=O)c3ccncc3)ccc2O1 | inconclusive: 43.4%
39 | O=C(Nc1ccc(N2CCCC2)cc1)c1cc2ccccc2o1 | inconclusive: 37.2%

The listing continues.

Row | SMILES | CPE inhibition
47 | CO[C@H]1CN(C)C(=O)c2cc(NC(C)=O)ccc2OC[C@H](C)N(CCc2ccccc2)C[C@H]1C | inactive: -4.74%
48 | N#C[C@@H]1[C@H](c2ccccc2C2=CCCC2)[C@H](CO)N1C(=O)C1CC1 | active: 21.8%
49 | Cc1cc(C(=O)Nc2cccc3c2O[C@@H](CN(C)C(=O)Nc2c(C)noc2C)[C@H](C)CN([C@@H](C)CO)C3=O)n(C)n1 | inconclusive: 21.2%
50 | COc1ccc(C(CCN2CCOCC2)c2c(OC)cc(OC)c3c(-c4ccccc4)cc(=O)oc23)cc1 (stereo not drawn) | inactive: 4.43%
51 | CO[C@@H](CN(C)Cc1cc(F)ccc1F)[C@@H](C)CN(C(=O)Nc1ccc(C(F)(F)F)cc1)[C@@H](C)CO | inconclusive: 27.7%
52 | C[C@H](CO)N1C[C@H](C)[C@H](CN(C)C(=O)NC2CCCCC2)OCCCC[C@H](C)Oc2ccc(N(C)C)cc2C1=O | inconclusive: 31.3%
53 | Cc1noc(C)c1NC(=O)N(C)C[C@@H]1Oc2ccc(NS(=O)(=O)c3cccs3)cc2C(=O)N([C@@H](C)CO)C[C@@H]1C | inactive: 1.75%
54 | COCCn1c(SCC(=O)NCc2ccc(OC)c(OC)c2)nc2ccccc21 | inconclusive: 57.8%
55 | CCCCn1c(N)c(N(CCOC)C(=O)c2cc(-c3ccccc3)nc3ccccc23)c(=O)[nH]c1=O | inconclusive: 32.3%
56 | O=C(Nc1cccc(C(F)(F)F)c1)OCCN1CCN(Cc2ccccc2)CCC1=O | active: 69.8%
57 | C[C@H](CO)N1C[C@H](C)[C@@H](CN(C)S(=O)(=O)c2ccccc2)Oc2ccc(NC(=O)CCCN(C)C)cc2C1=O | inactive: 5.02%
58 | C[C@@H]1CN([C@@H](C)CO)C(=O)c2cccc(NC(=O)Nc3ccc(C(F)(F)F)cc3)c2O[C@H]1CN(C)Cc1ccncc1 | inactive: 11.4%
59 | COc1cccc(NC(=O)c2cnc(NS(=O)(=O)c3ccccc3)nc2)c1 | inconclusive: 68.5%
60 | CCCC#Cc1ccc([C@@H]2[C@H]3CN(C(=O)Nc4ccc(F)cc4)CC(=O)N3[C@H]2CO)cc1 | active: 41.6%
61 | COc1ccc(S(=O)(=O)Nc2ccc3c(c2)C(=O)N([C@H](C)CO)C[C@H](C)[C@@H](CN(C)Cc2ccc(Cl)c(Cl)c2)OCCCC[C@@H](C)O3)cc1 | inactive: -0.782%
62 | CCCC(=O)N1CC2(CCN(C(=O)C3CCC3)CC2)c2c(n(C)c3cc(OC)ccc23)[C@@H]1CO | active: 22.2%
63 | CC1(C(=O)Nc2ccc(S(=O)(=O)Nc3ncccn3)cc2)CCCC1 | inconclusive: 30.2%
64 | C[C@]12c3[nH]c4cc(-c5ccco5)ccc4c3CCN1C(=O)[C@@H](CC(=O)NCCc1ccccn1)C[C@@H]2C(=O)N1CCOCC1 | active: 49.8%
65 | COc1ccc(NC(=O)N[C@H]2CC[C@H](CCNC(=O)CN3CCOCC3)O[C@H]2CO)cc1 | inconclusive: 25.4%
66 | O=C(COC(=O)/C=C/c1ccco1)NCCN1C(=O)CSC1=O | inconclusive: 30.6%
67 | Cc1noc(C)c1NC(=O)Nc1ccc2c(c1)CC(=O)N([C@H](C)CO)C[C@H](C)[C@H](CN(C)S(=O)(=O)c1c(C)noc1C)O2 | inactive: 4.16%
68 | C[C@H](CO)N1C[C@H](C)[C@H](CN(C)S(=O)(=O)c2ccc(Cl)cc2)Oc2ccc(N(C)C)cc2CC1=O | inactive: -10.6%
